In the supplement of paper PMC10849652:
The other results are listed elsewhere or left out.

The chains behind the UniProt entries cited, without tags or fusion partners. Where a name states a change or a piece, a line headed by the entry shows the natural chain unless it says otherwise.
UniProt Q8WTS1: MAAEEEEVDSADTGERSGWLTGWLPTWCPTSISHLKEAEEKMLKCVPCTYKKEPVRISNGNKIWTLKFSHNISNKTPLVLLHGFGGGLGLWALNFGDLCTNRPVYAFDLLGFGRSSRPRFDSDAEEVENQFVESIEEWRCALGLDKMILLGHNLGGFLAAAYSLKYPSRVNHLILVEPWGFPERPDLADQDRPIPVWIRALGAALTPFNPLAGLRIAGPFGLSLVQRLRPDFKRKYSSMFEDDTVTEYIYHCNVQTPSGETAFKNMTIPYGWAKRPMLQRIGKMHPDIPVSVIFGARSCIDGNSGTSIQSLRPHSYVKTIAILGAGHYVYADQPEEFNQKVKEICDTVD
UniProt Q86TW2: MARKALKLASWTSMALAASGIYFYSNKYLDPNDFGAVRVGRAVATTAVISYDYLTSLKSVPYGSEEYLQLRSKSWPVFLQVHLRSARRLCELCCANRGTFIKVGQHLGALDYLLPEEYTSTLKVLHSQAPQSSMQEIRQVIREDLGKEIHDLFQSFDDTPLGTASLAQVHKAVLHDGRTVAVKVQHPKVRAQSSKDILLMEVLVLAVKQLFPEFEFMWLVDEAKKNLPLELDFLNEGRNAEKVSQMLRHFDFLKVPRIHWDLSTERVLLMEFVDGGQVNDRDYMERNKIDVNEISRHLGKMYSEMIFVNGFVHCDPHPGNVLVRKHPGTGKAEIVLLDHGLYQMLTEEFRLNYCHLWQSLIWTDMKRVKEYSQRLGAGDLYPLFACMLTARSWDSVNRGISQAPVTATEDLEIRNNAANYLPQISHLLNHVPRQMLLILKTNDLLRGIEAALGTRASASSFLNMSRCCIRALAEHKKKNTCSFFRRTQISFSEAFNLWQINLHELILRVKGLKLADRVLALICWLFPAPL
UniProt P09110: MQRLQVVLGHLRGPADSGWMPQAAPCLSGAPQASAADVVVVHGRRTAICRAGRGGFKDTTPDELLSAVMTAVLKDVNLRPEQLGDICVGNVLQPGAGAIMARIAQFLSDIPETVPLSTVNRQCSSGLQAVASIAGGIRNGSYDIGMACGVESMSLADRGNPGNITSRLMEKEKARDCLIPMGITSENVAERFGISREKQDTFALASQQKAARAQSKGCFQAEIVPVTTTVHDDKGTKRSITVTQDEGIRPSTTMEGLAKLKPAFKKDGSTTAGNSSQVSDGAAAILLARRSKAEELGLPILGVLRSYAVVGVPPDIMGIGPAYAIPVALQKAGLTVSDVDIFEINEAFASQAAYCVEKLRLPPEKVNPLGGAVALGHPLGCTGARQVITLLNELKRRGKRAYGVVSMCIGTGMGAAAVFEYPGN
UniProt P28288: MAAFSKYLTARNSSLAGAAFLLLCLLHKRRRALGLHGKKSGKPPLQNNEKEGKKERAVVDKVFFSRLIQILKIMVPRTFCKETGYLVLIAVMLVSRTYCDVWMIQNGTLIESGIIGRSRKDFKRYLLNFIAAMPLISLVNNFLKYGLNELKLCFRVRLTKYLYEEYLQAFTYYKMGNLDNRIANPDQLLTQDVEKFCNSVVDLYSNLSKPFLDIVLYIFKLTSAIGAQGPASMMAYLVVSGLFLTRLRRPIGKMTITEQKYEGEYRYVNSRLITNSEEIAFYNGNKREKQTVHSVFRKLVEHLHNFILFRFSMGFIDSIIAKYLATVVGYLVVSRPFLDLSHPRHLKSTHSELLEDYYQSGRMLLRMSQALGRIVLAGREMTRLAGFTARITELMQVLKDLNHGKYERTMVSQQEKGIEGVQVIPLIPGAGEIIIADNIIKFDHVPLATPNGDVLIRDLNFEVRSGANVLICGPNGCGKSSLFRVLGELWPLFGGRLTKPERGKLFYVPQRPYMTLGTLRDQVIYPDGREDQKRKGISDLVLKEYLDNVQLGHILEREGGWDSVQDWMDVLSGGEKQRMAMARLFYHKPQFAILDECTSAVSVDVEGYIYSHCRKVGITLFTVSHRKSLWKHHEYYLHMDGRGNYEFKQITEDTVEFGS
UniProt Q9UNA0: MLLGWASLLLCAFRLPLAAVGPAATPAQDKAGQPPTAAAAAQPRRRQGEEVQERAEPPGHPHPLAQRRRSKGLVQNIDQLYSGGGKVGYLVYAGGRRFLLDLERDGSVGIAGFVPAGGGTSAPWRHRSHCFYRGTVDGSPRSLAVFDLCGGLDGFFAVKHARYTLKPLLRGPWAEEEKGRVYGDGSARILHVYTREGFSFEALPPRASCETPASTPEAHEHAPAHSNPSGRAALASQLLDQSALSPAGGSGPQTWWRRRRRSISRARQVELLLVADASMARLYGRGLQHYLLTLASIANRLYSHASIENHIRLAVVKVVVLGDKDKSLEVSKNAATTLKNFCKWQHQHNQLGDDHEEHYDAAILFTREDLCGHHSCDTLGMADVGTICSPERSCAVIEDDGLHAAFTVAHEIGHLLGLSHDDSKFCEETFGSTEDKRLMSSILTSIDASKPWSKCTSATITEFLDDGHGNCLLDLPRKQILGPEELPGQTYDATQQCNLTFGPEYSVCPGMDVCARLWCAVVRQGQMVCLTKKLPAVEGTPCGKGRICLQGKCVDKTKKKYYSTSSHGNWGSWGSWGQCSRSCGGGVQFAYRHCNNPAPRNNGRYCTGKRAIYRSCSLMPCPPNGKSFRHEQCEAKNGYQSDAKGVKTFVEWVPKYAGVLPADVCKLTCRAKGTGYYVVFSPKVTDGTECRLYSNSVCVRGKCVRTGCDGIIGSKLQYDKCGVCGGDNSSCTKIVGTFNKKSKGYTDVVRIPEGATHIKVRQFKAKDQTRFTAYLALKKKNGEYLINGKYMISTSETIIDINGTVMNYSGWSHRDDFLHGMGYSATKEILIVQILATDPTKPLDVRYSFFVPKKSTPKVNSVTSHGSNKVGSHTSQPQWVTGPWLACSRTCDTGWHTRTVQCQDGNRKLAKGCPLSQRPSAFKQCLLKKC
UniProt Q13444: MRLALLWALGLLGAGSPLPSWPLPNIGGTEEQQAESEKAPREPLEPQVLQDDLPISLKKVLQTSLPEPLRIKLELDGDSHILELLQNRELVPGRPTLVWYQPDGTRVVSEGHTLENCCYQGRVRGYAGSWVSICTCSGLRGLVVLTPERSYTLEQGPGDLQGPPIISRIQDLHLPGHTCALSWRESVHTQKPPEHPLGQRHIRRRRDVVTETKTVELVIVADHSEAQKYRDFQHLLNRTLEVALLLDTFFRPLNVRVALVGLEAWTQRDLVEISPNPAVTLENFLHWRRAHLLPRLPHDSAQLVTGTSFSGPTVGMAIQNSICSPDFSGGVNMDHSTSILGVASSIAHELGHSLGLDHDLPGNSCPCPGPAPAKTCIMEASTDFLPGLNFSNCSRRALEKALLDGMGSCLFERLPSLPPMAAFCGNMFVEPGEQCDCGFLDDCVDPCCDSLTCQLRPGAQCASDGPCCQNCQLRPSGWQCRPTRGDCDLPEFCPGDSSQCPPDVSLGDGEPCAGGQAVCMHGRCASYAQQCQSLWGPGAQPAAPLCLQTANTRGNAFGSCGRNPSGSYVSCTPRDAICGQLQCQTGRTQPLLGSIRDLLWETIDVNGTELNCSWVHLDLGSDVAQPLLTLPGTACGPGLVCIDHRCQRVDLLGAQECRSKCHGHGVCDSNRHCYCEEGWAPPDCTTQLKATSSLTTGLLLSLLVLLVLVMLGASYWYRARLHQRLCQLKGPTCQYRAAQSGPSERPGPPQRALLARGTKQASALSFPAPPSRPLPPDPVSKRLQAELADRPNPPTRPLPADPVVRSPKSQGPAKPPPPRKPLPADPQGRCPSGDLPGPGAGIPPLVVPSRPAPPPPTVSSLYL
UniProt Q9NPJ3: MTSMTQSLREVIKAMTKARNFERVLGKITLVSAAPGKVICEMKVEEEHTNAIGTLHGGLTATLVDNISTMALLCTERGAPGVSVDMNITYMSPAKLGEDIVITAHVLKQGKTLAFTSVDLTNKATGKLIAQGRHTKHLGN
UniProt Q9BWD1: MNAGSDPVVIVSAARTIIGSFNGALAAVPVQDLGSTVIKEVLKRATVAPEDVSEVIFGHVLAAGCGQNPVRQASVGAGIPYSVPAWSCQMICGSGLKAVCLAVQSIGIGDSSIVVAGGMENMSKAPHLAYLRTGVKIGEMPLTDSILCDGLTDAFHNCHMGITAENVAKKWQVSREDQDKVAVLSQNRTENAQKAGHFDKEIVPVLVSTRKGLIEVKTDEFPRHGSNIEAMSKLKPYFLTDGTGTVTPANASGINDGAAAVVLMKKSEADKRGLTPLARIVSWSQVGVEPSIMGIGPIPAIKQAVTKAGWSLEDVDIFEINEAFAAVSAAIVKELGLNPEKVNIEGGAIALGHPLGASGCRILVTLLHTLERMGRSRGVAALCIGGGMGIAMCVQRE
UniProt P49748: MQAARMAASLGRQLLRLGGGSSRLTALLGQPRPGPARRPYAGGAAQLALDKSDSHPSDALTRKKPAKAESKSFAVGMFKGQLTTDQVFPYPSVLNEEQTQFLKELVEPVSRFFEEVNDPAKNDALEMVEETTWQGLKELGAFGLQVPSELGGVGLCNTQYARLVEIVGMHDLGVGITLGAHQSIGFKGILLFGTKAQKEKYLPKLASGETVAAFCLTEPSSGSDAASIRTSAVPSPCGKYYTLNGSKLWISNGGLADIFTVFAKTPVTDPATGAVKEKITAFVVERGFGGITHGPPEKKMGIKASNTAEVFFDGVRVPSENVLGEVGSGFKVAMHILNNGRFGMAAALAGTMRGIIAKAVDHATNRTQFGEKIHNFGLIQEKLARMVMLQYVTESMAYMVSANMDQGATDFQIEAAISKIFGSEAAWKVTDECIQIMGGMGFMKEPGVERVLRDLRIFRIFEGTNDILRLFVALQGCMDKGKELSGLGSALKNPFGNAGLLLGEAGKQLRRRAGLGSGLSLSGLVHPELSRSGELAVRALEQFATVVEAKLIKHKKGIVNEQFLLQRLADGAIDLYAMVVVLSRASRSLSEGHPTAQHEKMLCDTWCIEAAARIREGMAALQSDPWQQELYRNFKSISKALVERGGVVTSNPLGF
UniProt Q9UKU7: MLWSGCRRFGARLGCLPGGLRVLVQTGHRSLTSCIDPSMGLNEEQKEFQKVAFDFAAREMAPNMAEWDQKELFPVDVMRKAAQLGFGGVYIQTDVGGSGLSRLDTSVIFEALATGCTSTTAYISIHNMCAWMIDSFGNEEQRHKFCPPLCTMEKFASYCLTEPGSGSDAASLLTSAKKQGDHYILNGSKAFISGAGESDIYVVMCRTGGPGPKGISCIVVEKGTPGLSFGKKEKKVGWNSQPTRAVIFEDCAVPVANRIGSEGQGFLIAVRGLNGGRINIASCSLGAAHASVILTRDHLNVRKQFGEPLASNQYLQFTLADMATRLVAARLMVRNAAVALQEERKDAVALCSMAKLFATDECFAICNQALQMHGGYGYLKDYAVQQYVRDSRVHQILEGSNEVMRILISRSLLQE
UniProt Q96IU4: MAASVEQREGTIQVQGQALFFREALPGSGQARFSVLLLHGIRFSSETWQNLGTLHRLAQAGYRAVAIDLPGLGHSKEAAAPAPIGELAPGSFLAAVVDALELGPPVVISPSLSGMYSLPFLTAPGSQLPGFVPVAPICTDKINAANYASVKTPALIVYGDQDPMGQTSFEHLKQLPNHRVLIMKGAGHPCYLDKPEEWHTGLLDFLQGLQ
UniProt P07311: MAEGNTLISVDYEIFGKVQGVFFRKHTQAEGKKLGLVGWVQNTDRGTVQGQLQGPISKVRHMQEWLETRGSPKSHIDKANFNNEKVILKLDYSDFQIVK
UniProt Q7L211: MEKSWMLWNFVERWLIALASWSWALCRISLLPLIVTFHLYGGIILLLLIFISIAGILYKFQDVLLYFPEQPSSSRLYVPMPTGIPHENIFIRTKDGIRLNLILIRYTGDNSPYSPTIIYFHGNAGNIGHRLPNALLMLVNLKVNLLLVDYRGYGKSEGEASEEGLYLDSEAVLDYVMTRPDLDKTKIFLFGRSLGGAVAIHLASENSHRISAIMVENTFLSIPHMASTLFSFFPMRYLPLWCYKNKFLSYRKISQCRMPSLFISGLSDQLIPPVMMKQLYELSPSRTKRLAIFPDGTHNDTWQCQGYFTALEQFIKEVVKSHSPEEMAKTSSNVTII
UniProt P28330: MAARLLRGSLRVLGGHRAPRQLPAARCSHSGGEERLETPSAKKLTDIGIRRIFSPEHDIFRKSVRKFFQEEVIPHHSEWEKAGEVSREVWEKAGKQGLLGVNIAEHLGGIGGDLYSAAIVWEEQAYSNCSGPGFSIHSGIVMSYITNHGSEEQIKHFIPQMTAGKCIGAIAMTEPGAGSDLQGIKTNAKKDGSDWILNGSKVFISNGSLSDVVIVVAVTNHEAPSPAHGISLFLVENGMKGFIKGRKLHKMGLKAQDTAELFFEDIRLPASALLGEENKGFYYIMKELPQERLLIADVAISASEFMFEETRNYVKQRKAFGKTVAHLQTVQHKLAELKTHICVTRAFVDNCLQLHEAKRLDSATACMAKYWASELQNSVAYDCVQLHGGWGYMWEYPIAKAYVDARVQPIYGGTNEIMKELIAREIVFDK

Tests used:
Test in all cases: log2 fold change, soluble protein after heating vs DMSO (PISA); higher = thermal stabilisation; K562 cells, 10 uM, 30 min; active = over 0.2 and 3.5 SD of the protein, either way, in both replicates (recomputed)
[1] = compound: COC1=CC=C(C=C1)CN2C=CC3=C2C=C(C=C3)C(=O)NO
Outline: (§1)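 K562 cells at 2×10^6 cells/mL were treated with 10 μM compound for 30 min. Aliquots were heated for 3 min across 48°C-58°C, pooled, and extracted in PBS with 0.5% NP-40 at 4°C; soluble protein was the supernatant after 21,000xg for 90 min. Soluble protein was quantified by TMTpro 16plex LC-MS/MS with channel sums equalised, and reported as log2 fold change in thermal stability against DMSO controls, with values from duplicates.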

filanesib = compound: CON(C)C(=O)N1N=C(c2cc(F)ccc2F)S[C@@]1(CCCN)c1ccccc1 [filanesib]
Outline: as §1

zotarolimus = compound: CO[C@H]1C[C@@H]2CC[C@@H](C)[C@@](O)(O2)C(=O)C(=O)N2CCCC[C@H]2C(=O)O[C@H]([C@H](C)C[C@@H]2CC[C@H](n3cnnn3)[C@H](OC)C2)CC(=O)[C@H](C)/C=C(\C)[C@@H](O)[C@@H](OC)C(=O)[C@H](C)C[C@H](C)/C=C/C=C/C=C/1C [zotarolimus]
Outline: as §1

idasanutlin = compound: COc1cc(C(=O)O)ccc1NC(=O)[C@@H]1N[C@@H](CC(C)(C)C)[C@](C#N)(c2ccc(Cl)cc2F)[C@H]1c1cccc(Cl)c1F [idasanutlin]
Outline: as §1

[2] = compound: COc1cc2nc(-c3cc(F)ccc3O)nc(N[C@@H]3CNC[C@H]3C(C)(C)O)c2cc1OC
Outline: as §1

lapatinib = compound: CS(=O)(=O)CCNCc1ccc(-c2ccc3ncnc(Nc4ccc(OCc5cccc(F)c5)c(Cl)c4)c3c2)o1 [lapatinib]
Outline: as §1

alisertib = compound: COc1cc(Nc2ncc3c(n2)-c2ccc(Cl)cc2C(c2c(F)cccc2OC)=NC3)ccc1C(=O)O [alisertib]
Outline: as §1

[3] = compound: COc1cccc2cc(-c3nc([C@H]4CC[C@H](C(=O)O)CC4)n4ncnc(N)c34)[nH]c12
Outline: as §1

pictilisib = compound: CS(=O)(=O)N1CCN(Cc2cc3nc(-c4cccc5[nH]ncc45)nc(N4CCOCC4)c3s2)CC1 [pictilisib]
Outline: as §1

gefitinib = compound: COc1cc2ncnc(Nc3ccc(F)c(Cl)c3)c2cc1OCCCN1CCOCC1 [gefitinib]
Outline: as §1

Measured: log2 fold change

ABHD5 (UniProt Q8WTS1)
inactive: [1] 0.043 | filanesib 0.098 | zotarolimus 0.111 | idasanutlin -0.047 | [2] -0.108 | lapatinib 0.025

ACTN4 (UniProt K7EJH8)
inactive: [1] 0.042 | filanesib -0.033 | zotarolimus 0.002 | idasanutlin -0.012 | alisertib -0.196 | [2] 0.011 | [3] 0.148 | lapatinib 0.001 | pictilisib -0.05

ABCA3 (UniProt Q99758)
inactive: [1] -0.044 | filanesib 0.062 | zotarolimus 0.03 | idasanutlin -0.021 | [2] 0.147 | lapatinib -0.084 | pictilisib 0.01

ADCK1 (UniProt Q86TW2)
inactive: [1] 0.072 | filanesib -0.077 | zotarolimus -0.139 | alisertib -0.059 | [2] 0.058 | gefitinib -0.044 | [3] 0.175 | lapatinib 0.08

ABCF3 (UniProt Q9NUQ8)
inactive: [1] -0.052 | filanesib 0.333 | zotarolimus 0.027 | idasanutlin 0.233 | alisertib -0.115 | [2] -0.171 | gefitinib 0.034 | [3] -0.276 | lapatinib 0.039 | pictilisib 0.266

ACAA1 (UniProt P09110)
inactive: [1] 0.045 | filanesib -0.047 | zotarolimus -0.03 | idasanutlin -0.039 | alisertib -0.092 | [2] -0.025 | gefitinib -0.007 | [3] 0.02 | lapatinib 0.007 | pictilisib -0.003

ABCD3 (UniProt P28288)
inactive: [1] -0.005 | filanesib 0.033 | zotarolimus 0.016 | idasanutlin -0.13 | alisertib -0.012 | [2] 0.193 | gefitinib 0 | [3] 0.037 | lapatinib -0.02 | pictilisib 0.11

AAK1, A0A096LP25
inactive: [1] -0.089 | filanesib -0.01 | zotarolimus -0.095 | idasanutlin -0.077 | alisertib 0.002 | gefitinib -0.049 | [3] 0.129 | pictilisib 0.16

ADAMTS5 (UniProt Q9UNA0)
inactive: [1] 0.295 | filanesib -0.051 | zotarolimus -0.063 | idasanutlin -0.06 | alisertib 0.019 | gefitinib 0.012 | [3] 0.092 | pictilisib 0.198

ADAM15 (UniProt Q13444)
inactive: [1] -0.159 | filanesib 0.065 | zotarolimus -0.206 | idasanutlin -0.083 | [2] 0.078 | gefitinib -0.029 | lapatinib 0 | pictilisib -0.045

ACTG1 (UniProt K7EM38)
inactive: [1] -0.011 | filanesib 0.005 | zotarolimus 0.112 | idasanutlin -0.487 | [2] 0.409 | lapatinib -0.045 | pictilisib -0.255

ACOT13 (UniProt Q9NPJ3)
inactive: [1] 0.219 | filanesib -0.134 | zotarolimus 0.024 | idasanutlin -0.08 | alisertib -0.053 | [2] -0.016 | gefitinib -0.001 | [3] 0.054 | lapatinib -0.009 | pictilisib -0.195

ACAT2 (UniProt Q9BWD1)
inactive: [1] 0.051 | filanesib -0.027 | zotarolimus 0.04 | idasanutlin 0.031 | alisertib -0.116 | [2] 0.037 | gefitinib 0.017 | [3] 0.058 | lapatinib 0 | pictilisib 0.028

ACADVL isoform 3 (UniProt P49748)
inactive: [1] 0 | filanesib -0.069 | zotarolimus 0.019 | idasanutlin -0.04 | alisertib -0.031 | [2] -0.089 | gefitinib -0.019 | [3] 0.025 | lapatinib -0.12 | pictilisib 0.093

ABHD10 (UniProt Q9NUJ1)
inactive: [1] 0.104 | filanesib 0 | zotarolimus 0.024 | idasanutlin -0.05 | alisertib -0.022 | [2] -0.003 | gefitinib 0.016 | [3] 0.068 | lapatinib 0.02 | pictilisib 0.01

ABHD12 isoform 2 (UniProt Q8N2K0)
inactive: [1] 0.002 | filanesib 0.003 | zotarolimus 0.019 | idasanutlin 0.119 | alisertib -0.035 | [2] -0.016 | gefitinib -0.101 | [3] -0.056 | lapatinib 0.143 | pictilisib 0.021

ACAD8 (UniProt Q9UKU7)
inactive: [1] -0.122 | filanesib 0.074 | zotarolimus -0.003 | idasanutlin -0.065 | alisertib -0.104 | [2] 0.064 | gefitinib 0.098 | [3] 0.056 | lapatinib -0.035 | pictilisib 0.021

ACTR3 (UniProt P61158)
inactive: [1] -0.006 | filanesib 0.008 | zotarolimus -0.007 | idasanutlin -0.005 | alisertib -0.093 | [2] 0.025 | gefitinib -0.001 | [3] 0.055 | lapatinib -0.025 | pictilisib -0.036

ABHD14B (UniProt Q96IU4)
inactive: [1] 0.046 | filanesib 0.001 | zotarolimus 0.022 | idasanutlin -0.037 | alisertib -0.061 | [2] -0.037 | gefitinib 0.041 | [3] 0.017 | lapatinib 0.006 | pictilisib -0.011

ACYP1 (UniProt P07311)
inactive: [1] -0.046 | filanesib -0.047 | zotarolimus 0.016 | idasanutlin -0.05 | alisertib -0.056 | [2] -0.041 | gefitinib 0.02 | [3] 0.037 | lapatinib 0.017 | pictilisib 0.182

ABCB4 (UniProt P21439)
inactive: idasanutlin -0.103 | alisertib 0.048 | [2] 0.061 | [3] 0.014 | lapatinib -0.099

ABHD13 (UniProt Q7L211)
inactive: [1] -0.089 | filanesib 0.059 | idasanutlin -0.206 | alisertib 0.032 | [2] -0.07 | gefitinib -0.045 | [3] 0.103 | lapatinib 0.086 | pictilisib -0.04

ABCE1 (UniProt H0Y990)
inactive: filanesib -0.085 | zotarolimus -0.108 | idasanutlin -0.201 | alisertib -0.145 | [2] 0.012 | gefitinib -0.027 | [3] 0.03 | lapatinib -0.05 | pictilisib -0.136

ACADL (UniProt P28330)
inactive: filanesib 0.041

ACTRT1 (UniProt Q8TDG2)
inactive: idasanutlin 0.056 | [2] 0.323 | lapatinib -0.413 | pictilisib 0.127

Retrieved one by one from the entries so far, two records:
ACADL (UniProt P28330)
inactive: filanesib 0.041

ABHD13 (UniProt Q7L211)
inactive: [1] -0.089 | filanesib 0.059 | idasanutlin -0.206 | alisertib 0.032 | [2] -0.07 | gefitinib -0.045 | [3] 0.103 | lapatinib 0.086 | pictilisib -0.04

Following part:

ABHD17B (UniProt Q5VST6)
inactive: [1] 0.011 | zotarolimus 0.053 | idasanutlin -0.097 | alisertib -0.087 | [2] 0.091 | gefitinib 0.035 | [3] 0.064 | lapatinib 0.001 | pictilisib 0.086

ACLY isoform 2 (UniProt P53396)
inactive: filanesib -0.009 | idasanutlin 0.094 | alisertib 0.058 | [2] -0.013 | gefitinib -0.057 | [3] 0.231 | lapatinib -0.151

ABCB5 (UniProt Q2M3G0)
inactive: gefitinib -0.019

ABHD14A (UniProt Q9BUJ0)
inactive: filanesib 0.121
